{"source": "PubChem BioAssay AID1053208 (Peter MacCallum Cancer Centre, 2014)", "aim": "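Find knock-downs that sensitise mouse osteosarcoma cells to doxorubicin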 (primary screen)", "cell system": "mouse osteosarcoma cells, early-passage culture from an engineered mouse model of fibroblastic bone tumour", "knock-down reagent": "siRNA pool against mouse genes, 40 nM", "duration": "about 120 h (48 h before drug, then 72 h with drug)", "challenge": "doxorubicin 100 nM for 72 h, roughly 30-40% inhibitory dose", "measured": "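Luminescent ATP signal taken as viability with or without 100 nM doxorubicin for 72 h; mean of two wells set against non-targeting siRNA and turned into robust z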", "reading the numbers": "viability z-score with doxorubicin: higher = more viable cells under doxorubicin; viability z-score without drug: higher = more viable cells with knock-down alone", "hit rule": "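Called active if knock-down leaves viability unchanged without drug (z within -2 to 2) but lowers it with doxorubicin (z at or under -2)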", "note": "The whole screen tested about 17,000 reagents; below is an unselected part. 788 of them (4.7%) were called active. 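Calls rest on z-score classes alone; an extra cut-off of viability at most 70% of control was not applied to them.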 Entries without a mark were called inactive. The numbers tell different reagents against one gene apart. Not all columns of the deposit are shown."}
{"target gene": "Atxn2l (ataxin 2-like)", "reagent": 1, "combined z-score class": "no change with or without drug", "viability z-score with doxorubicin": -0.22, "viability z-score without drug": 0.51}
{"target gene": "Mak (male germ cell-associated kinase)", "reagent": 1, "combined z-score class": "no change with or without drug", "viability z-score with doxorubicin": -1.12, "viability z-score without drug": 1.35}
{"target gene": "P2ry13 (purinergic receptor P2Y, G-protein coupled 13)", "reagent": 1, "combined z-score class": "no change with or without drug", "viability z-score with doxorubicin": -0.22, "viability z-score without drug": 0.34}
{"target gene": "Smim7 (small integral membrane protein 7)", "reagent": 1, "combined z-score class": "no change with or without drug", "viability z-score with doxorubicin": -0.11, "viability z-score without drug": -0.17}
{"target gene": "Gsdme (gasdermin E)", "reagent": 1, "combined z-score class": "no change with or without drug", "viability z-score with doxorubicin": -0.56, "viability z-score without drug": -0.51}
{"target gene": "Ggh (gamma-glutamyl hydrolase)", "reagent": 1, "combined z-score class": "no change with or without drug", "viability z-score with doxorubicin": 1.35, "viability z-score without drug": -0.51}
{"target gene": "Hoxc8 (homeobox C8)", "reagent": 1, "combined z-score class": "no change with or without drug", "viability z-score with doxorubicin": 0, "viability z-score without drug": 0.51}
{"target gene": "Naa35 (N(alpha)-acetyltransferase 35, NatC auxiliary subunit)", "reagent": 1, "combined z-score class": "no change with or without drug", "viability z-score with doxorubicin": 0.79, "viability z-score without drug": 0.17}
{"target gene": "Or2l13b (olfactory receptor family 2 subfamily L member 13B)", "reagent": 1, "combined z-score class": "no change with or without drug", "viability z-score with doxorubicin": -0.22, "viability z-score without drug": -0.51}
{"target gene": "Tmem150a (transmembrane protein 150A)", "reagent": 1, "combined z-score class": "no change with or without drug", "viability z-score with doxorubicin": -1.01, "viability z-score without drug": -0.17}
{"target gene": "Fbxo21 (F-box protein 21)", "reagent": 1, "combined z-score class": "no change with or without drug", "viability z-score with doxorubicin": -0.11, "viability z-score without drug": 0.17}
{"target gene": "Tyw2 (tRNA wybutosine-synthesizing protein 2)", "reagent": 1, "combined z-score class": "no change with or without drug", "viability z-score with doxorubicin": 0.45, "viability z-score without drug": 0}
{"target gene": "Rnpc3 (RNA-binding region (RNP1, RRM) containing 3)", "reagent": 1, "combined z-score class": "no change with or without drug", "viability z-score with doxorubicin": 0.79, "viability z-score without drug": 0.51}
{"target gene": "Znrd2 (zinc ribbon domain containing 2)", "reagent": 1, "combined z-score class": "no change with or without drug", "viability z-score with doxorubicin": -1.01, "viability z-score without drug": -0.84}
{"target gene": "Wnt4 (WNT family member 4)", "reagent": 1, "combined z-score class": "no change with or without drug", "viability z-score with doxorubicin": 0, "viability z-score without drug": 0.51}
{"target gene": "Prr14l (proline rich 14-like)", "reagent": 1, "combined z-score class": "no change with or without drug", "viability z-score with doxorubicin": 1.8, "viability z-score without drug": 0}
{"target gene": "Gm9725 (predicted gene 9725)", "reagent": 1, "combined z-score class": "no change with or without drug", "viability z-score with doxorubicin": 0.56, "viability z-score without drug": -0.84}
{"target gene": "Rpgrip1 (retinitis pigmentosa GTPase regulator interacting protein 1)", "reagent": 1, "combined z-score class": "low cell count with doxorubicin only (active)", "viability z-score with doxorubicin": -2.36, "viability z-score without drug": -0.51}
{"target gene": "Gsto2 (glutathione S-transferase omega 2)", "reagent": 1, "combined z-score class": "no change with or without drug", "viability z-score with doxorubicin": 0.79, "viability z-score without drug": 1.52}
{"target gene": "Cdc42 (cell division cycle 42)", "reagent": 1, "combined z-score class": "low cell count without drug only", "viability z-score with doxorubicin": -0.9, "viability z-score without drug": -2.19}

As entered above.
Entry of Atxn2l (ataxin 2-like) in “viability z-score with doxorubicin”: -0.22
Rpgrip1 (retinitis pigmentosa GTPase regulator interacting protein 1), combined z-score class = low cell count with doxorubicin only (active)

The results go on.
{"target gene": "Tax1bp1 (Tax1 (human T cell leukemia virus type I) binding protein 1)", "reagent": 1, "combined z-score class": "no change with or without drug", "viability z-score with doxorubicin": -1.12, "viability z-score without drug": -1.85}
{"target gene": "Krt10 (keratin 10)", "reagent": 1, "combined z-score class": "no change with or without drug", "viability z-score with doxorubicin": -0.22, "viability z-score without drug": -0.51}
{"target gene": "Ikbip (IKBKB interacting protein)", "reagent": 1, "combined z-score class": "no change with or without drug", "viability z-score with doxorubicin": 0, "viability z-score without drug": 0.84}
{"target gene": "Ikbip (IKBKB interacting protein)", "reagent": 2, "combined z-score class": "high cell count without drug only", "viability z-score with doxorubicin": 0, "viability z-score without drug": 2.53}
{"target gene": "Fcna (ficolin A)", "reagent": 1, "combined z-score class": "no change with or without drug", "viability z-score with doxorubicin": -0.11, "viability z-score without drug": 0.67}
{"target gene": "Actr1a (ARP1 actin-related protein 1A, centractin alpha)", "reagent": 1, "combined z-score class": "no change with or without drug", "viability z-score with doxorubicin": -1.12, "viability z-score without drug": 0.51}
{"target gene": "Gm38410 (predicted gene, 38410)", "reagent": 1, "combined z-score class": "no change with or without drug", "viability z-score with doxorubicin": -0.22, "viability z-score without drug": -0.17}
{"target gene": "Dennd6a (DENN domain containing 6A)", "reagent": 1, "combined z-score class": "no change with or without drug", "viability z-score with doxorubicin": 0.67, "viability z-score without drug": -0.17}
{"target gene": "Or4c110 (olfactory receptor family 4 subfamily C member 110)", "reagent": 1, "combined z-score class": "no change with or without drug", "viability z-score with doxorubicin": -0.45, "viability z-score without drug": 0.34}
{"target gene": "Cyp2j6 (cytochrome P450, family 2, subfamily j, polypeptide 6)", "reagent": 1, "combined z-score class": "no change with or without drug", "viability z-score with doxorubicin": 0.9, "viability z-score without drug": 0.67}
{"target gene": "Apoe (apolipoprotein E)", "reagent": 1, "combined z-score class": "high cell count with and without drug", "viability z-score with doxorubicin": 3.6, "viability z-score without drug": 2.19}
{"target gene": "Slfn5 (schlafen 5)", "reagent": 1, "combined z-score class": "no change with or without drug", "viability z-score with doxorubicin": -1.12, "viability z-score without drug": -0.17}
{"target gene": "Bcdin3d (BCDIN3 domain containing)", "reagent": 1, "combined z-score class": "no change with or without drug", "viability z-score with doxorubicin": -1.57, "viability z-score without drug": -0.17}
{"target gene": "Ccn2 (cellular communication network factor 2)", "reagent": 1, "combined z-score class": "high cell count with doxorubicin only", "viability z-score with doxorubicin": 2.02, "viability z-score without drug": -0.84}
{"target gene": "Ntng2 (netrin G2)", "reagent": 1, "combined z-score class": "high cell count with doxorubicin only", "viability z-score with doxorubicin": 3.15, "viability z-score without drug": 1.35}
{"target gene": "Pex11a (peroxisomal biogenesis factor 11 alpha)", "reagent": 1, "combined z-score class": "no change with or without drug", "viability z-score with doxorubicin": 0.11, "viability z-score without drug": 0.84}
